{"source": "patent US3976771A", "about": "“Glycylglycine amide preparations and method of use antiarrhythmic” (priority 1972, dated 1976)", "key": {"mice": {"tested_on": "mice", "assay": "Acute oral toxicity in mice", "assay_type": "in vivo", "conditions": "deaths during 7 days", "procedure": "For determination of acute toxicity groups of 10 mice were treated orally with varying doses of compound observing the incidence of death, during a 7 days period. LD50 and LD 0.1 were calculated by means of a logarithmic-probit graph paper."}, "[1]": {"tested_on": "ventricular fibrillation upon exposure to chloroform vapor", "assay": "Protection against chloroform-induced ventricular fibrillation in mice", "assay_type": "in vivo", "text": "The method used in mice was essentially the same as described by Lawson (J. Pham. Exp. Therap. 160, 22 (1968). Male mice (NMRI, 17-25 g) were used. Unanesthetized, untreated mice show cardiac ventricular fibrillation upon exposure to chloroform vapor. The ventricular fibrillation is abolished if the animals are pretreated with appropriate doses of known antiarrhythmic agents before exposure to chloroform.\nFor determination of antiarrhythmic effect groups of 10 mice were pretreated by the oral route with varying sublethal doses of compound 10 to 300 min. respectively before being placed individually in a beaker containing chloroform. The mouse was removed from the beaker at the time of respiratory arrest and the thorax opened. Examination of ventricular fibrillation was made by means of ECG-recordings (lead II). The effect of the compound was expressed as the number of animals in per cent which were protected from fibrillation."}}}
{"molecule": "CCN(CC)CC(=O)Nc1c(C)cccc1C", "note": "[Lidocaine, 2-diethylamino-2', 6'-acetoxylidide, reference compound]", "values": [{"measurement": "Toxicity LD50 p.o.", "setting": "mice", "value": 445, "unit": "mg/kg bodyweight"}, {"measurement": "Percentage animals protected from fibrillation", "setting": "[1]; 45 mg/kg p.o. (one tenth of LD50), 10 min", "value": 30, "unit": "per cent"}, {"measurement": "Percentage animals protected from fibrillation", "setting": "[1]; 45 mg/kg p.o. (one tenth of LD50), 60 min", "value": 10, "unit": "per cent"}, {"measurement": "Percentage animals protected from fibrillation", "setting": "[1]; 150 mg/kg p.o. (LD 0.1), 10 min", "value": 70, "unit": "per cent"}, {"measurement": "Percentage animals protected from fibrillation", "setting": "[1]; 150 mg/kg p.o. (LD 0.1), 60 min", "value": 20, "unit": "per cent"}]}
